Here are results for 16 molecules from doi:10.1101/2021.10.13.464316 (bioRxiv, 2021).

Sequences of proteins named here, by UniProt entry; tags and fusion partners are left off. A change or cut given only in a name is not applied to a line headed by its entry. A line that says so, or that is headed by a name, gives the form on record, which may keep a tag or linker. Residues count along the entry.
UniProt Q9SCZ4: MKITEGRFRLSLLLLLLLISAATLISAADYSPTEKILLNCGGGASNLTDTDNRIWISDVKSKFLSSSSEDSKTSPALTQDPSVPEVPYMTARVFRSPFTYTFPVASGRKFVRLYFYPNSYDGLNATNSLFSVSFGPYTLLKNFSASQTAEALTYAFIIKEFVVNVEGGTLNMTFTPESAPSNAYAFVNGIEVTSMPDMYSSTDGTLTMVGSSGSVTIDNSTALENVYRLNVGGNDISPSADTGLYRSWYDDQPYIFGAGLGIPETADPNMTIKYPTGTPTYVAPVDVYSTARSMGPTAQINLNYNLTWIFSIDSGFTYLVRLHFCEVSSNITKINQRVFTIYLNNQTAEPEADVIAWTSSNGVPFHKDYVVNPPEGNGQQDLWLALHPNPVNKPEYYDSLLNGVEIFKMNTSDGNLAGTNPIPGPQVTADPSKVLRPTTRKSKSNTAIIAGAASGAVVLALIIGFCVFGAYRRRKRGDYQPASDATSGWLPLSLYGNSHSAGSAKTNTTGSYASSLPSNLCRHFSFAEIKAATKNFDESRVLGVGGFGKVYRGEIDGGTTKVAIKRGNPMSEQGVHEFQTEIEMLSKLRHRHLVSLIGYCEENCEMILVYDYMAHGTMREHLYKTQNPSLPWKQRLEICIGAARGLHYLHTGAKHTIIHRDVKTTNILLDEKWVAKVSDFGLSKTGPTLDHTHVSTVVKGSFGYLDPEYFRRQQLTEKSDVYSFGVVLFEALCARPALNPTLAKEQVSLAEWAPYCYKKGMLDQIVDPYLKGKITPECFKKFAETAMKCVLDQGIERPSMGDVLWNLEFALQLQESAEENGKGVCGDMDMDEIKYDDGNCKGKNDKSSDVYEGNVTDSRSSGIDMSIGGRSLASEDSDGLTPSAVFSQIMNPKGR
FER–nVenus: residues 28-895 of Q9SCZ4
cytoplasmic domain of FERONIA fused to the GAL4 DNA-binding domain (BD-FER-CD): residues 469-895 of Q9SCZ4
UniProt Q9FL28, residues 870-1155: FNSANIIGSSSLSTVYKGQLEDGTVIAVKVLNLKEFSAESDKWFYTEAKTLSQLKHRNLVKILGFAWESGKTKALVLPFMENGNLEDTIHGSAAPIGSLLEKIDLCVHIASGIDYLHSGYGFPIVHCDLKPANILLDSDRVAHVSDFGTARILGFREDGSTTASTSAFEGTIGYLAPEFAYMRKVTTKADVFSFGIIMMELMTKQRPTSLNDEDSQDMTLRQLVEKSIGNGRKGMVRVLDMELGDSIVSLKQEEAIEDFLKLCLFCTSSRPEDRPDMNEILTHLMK
UniProt O22476, residues 814-1196: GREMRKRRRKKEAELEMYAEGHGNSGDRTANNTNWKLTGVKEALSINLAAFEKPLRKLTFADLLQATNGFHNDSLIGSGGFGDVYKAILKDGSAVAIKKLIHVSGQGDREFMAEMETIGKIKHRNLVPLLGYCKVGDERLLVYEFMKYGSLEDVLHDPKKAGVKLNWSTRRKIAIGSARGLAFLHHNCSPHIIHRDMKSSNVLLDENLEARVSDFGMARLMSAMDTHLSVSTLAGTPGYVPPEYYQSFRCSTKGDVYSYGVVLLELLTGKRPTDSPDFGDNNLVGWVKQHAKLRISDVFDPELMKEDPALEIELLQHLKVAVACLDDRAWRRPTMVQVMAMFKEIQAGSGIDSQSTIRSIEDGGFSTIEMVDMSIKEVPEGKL

No constants are given. Whether binding was seen depends on the method and setting. For some of these results: In cells and extracts the contact can be indirect. Some results given as binding are weak or reduced against the parent protein; the word gives no strength. Tags and fused reporters may be left off the sequences shown.

First the molecules themselves.
B1: AD-CAR7 (protein, UniProt Q9SSL1 1-165)
chain: MEELVGLLRIRVKRGINLAQRDTLSSDPFVVITMGSQKLKTRVVENNCNPEWNEELTLALRHPDEPVNLIVYDKDTFTSHDKMGDAKIDIKPFLEVHKMGLQELPDGTEIKRVVPNRENCLAEASSIVSNNGKIVQNMILLLRNVECGEVEIQLEWIDIPGSRGL
B2: AD-CAR3 (protein, UniProt Q9C6B7 1-168)
chain: MSLMDNLLGILRVRVQRGVNLAVRDVSSSDPYVVLKLGRQKLKTKVVKQNVNPQWQEDLSFTVTDPNLPLTLIVYDHDFFSKDDKMGDAEIDLKPYIEALRMELSGLPDGTIISTIGPSRGNCLAEESYIRWINDRIVQHICLRLRNVERGEVEIELQWIDLPGSKGL
B3: AD-CAR2 (protein, UniProt Q9C8Y2 1-174)
chain: MENMLGLLRLHVIRGVNLAIRDSQSSDPYVIVRMGKQKLRTRVMKKNLNTEWNEDLTLSVTDPTLPVKIMVYDRDRFSRDDKMGDAIFHIDPFLEAIRIQNQLGGLPEGTVIMKIQASRQNCLSEESKIVWHKGKIVQNMFLKLQNVERGEIELQLEWIDVSGALTDDAEDVAF
B4: AD-CAR4 (protein, UniProt Q9LVH4 1-177)
chain: MTTACPARTSSLMDDLLGLLRIRIKRGVNLAVRDISSSDPYVVVKMGKQKLKTRVINKDVNPEWNEDLTLSVTDSNLTVLLTVYDHDMFSKDDKMGDAEFEIKPYIEALRMQLDGLPSGTIVTTVKPSRRNCLAEESRVTWVDGKLVQDLVLRLRHVECGEVEAQLQWIDLPGSKGL
B5: AD-CAR6 (protein, UniProt Q9S764 1-174)
chain: MEKTEEEVEMKELVGLVRILVKRGIDLARRDALSSDPFVVITMGPQKLKSFTVKNNCNPEWNEELTLAIEDPNEPVKLMVYDKDTFTADDKMGDAQIDMKPFLDVHKLGLKELPHGKELKRIVPTRDNCLSEDSIIVSDNGKIVQDMILLLKNVECGKVEIQLEWLKNPGGSGL
B6: CAR9 (prey found in the yeast two-hybrid screen) (protein, UniProt Q9S7J9 1-185)
chain: MEDKPLGILRVHVKRGINLAIRDATTSDPYVVITLANQKLKTRVINNNCNPVWNEQLTLSIKDVNDPIRLTVFDKDRFSGDDKMGDAEIDFRPFLEAHQMELDFQKLPNGCAIKRIRPGRTNCLAEESSITWSNGKIMQEMILRLKNVECGEVELMLEWTDGPGCKGLGREGSKKTPWMPTKRLD
B7: AD-CAR9 (protein, UniProt Q9S7J9 1-185)
chain: B6 chain
B8: AD-CAR1 (protein, UniProt Q9FHP6 1-168)
chain: MENLVGLLRIHVKRGVNLAIRDISSSDPYIVVHCGKQKLKTRVVKHSVNPEWNDDLTLSVTDPNLPIKLTVYDYDLLSADDKMGEAEFHIGPFIEAIKFAHQLGPGLPNGTIIKKIEPSRKNCLSESSHIVLNQGKIVQNMFLRLQHVECGEVELQLEWIDVPGSRGI
B9: AD-CAR10 (protein, UniProt Q9ZVF1 1-180)
chain: MDQKPLGLLTIHVKRGINLAIRDHRSSDPYIVLNVADQTLKTRVVKKNCNPVWNEEMTVAIKDPNVPIRLTVFDWDKFTGDDKMGDANIDIQPYLEALKMGMELLRLPNGCAIKRVQPSRHNCLSDESSIVWNNGKITQDLILRLNNVECGEIEIMLEWHEGAGCRGITSSSKGGGSSST
B10: AD-CAR5 (protein, UniProt Q9LP65 1-200)
chain: MIVSFLYFSSLFPTSLRKINLVAGEKHKDRRMKPSLMDSLLGLLRIRIKRGVNLAVRDLNSSDPYVVVKMAKQKLKTRVIYKNVNPEWNEDLTLSVSDPNLTVLLTVYDYDTFTKDDKMGDAEFGIKPFVNALKMHLHDLPSGTIVTTVQPSRDNCLAEESRVIWSDGKLVQDIVLRLRHVECGEVEAQLQWIDLPGKGL
B11: CAR4–cCFP (protein, UniProt Q9LVH4 1-177)
chain: B4 chain
B12: CAR6–cCFP (protein, UniProt Q9S764 1-174)
chain: B5 chain
B13: CAR9–cCFP (protein, UniProt Q9S7J9 1-185)
chain: B6 chain
B14: CAR1–cCFP (protein, UniProt Q9FHP6 1-168)
chain: B8 chain
B15: CAR10–cCFP (protein, UniProt Q9ZVF1 1-180)
chain: B9 chain
B16: CAR5–cCFP (protein, UniProt Q9LP65 1-200)
chain: B10 chain

The first assay addresses cytoplasmic domain of FERONIA fused to the GAL4 DNA-binding domain (BD-FER-CD) (Arabidopsis thaliana) (UniProt Q9SCZ4). Kind of assay: two-hybrid.
For the molecule B1, the binding result is listed as “no binding”.
On the same count and under the same terms, for B2 the value was “no binding”; for B3, “no binding”; for B4, “binds”.
The same measure, in the same setting: for B5 the value was “binds”; for B6, “binds”; for B7, “binds”.
Consider B8, for which the binding result is recorded as “binds”.
On the same count and under the same terms, for B9 the value was “binds”.
Same read-out and setting: the entry for B10 is “binds”.

In the next assay the target is FER–nVenus (Arabidopsis thaliana) (UniProt Q9SCZ4). Kind of assay: split reporter.
As to B11, the binding result is recorded as “binds”.
Still for that read-out and setting: the entry for B12 is “binds”.
Still for that read-out and setting: the entry for B13 is “binds”.
Consider B14, for which the binding result was “binds”.
As to B15, the binding entry is “binds”.
On the same count and under the same terms, for B16 the value was “binds”.

The target of another assay is cytoplasmic domain of FLS2 fused to the GAL4 DNA-binding domain (Arabidopsis thaliana) (UniProt Q9FL28). Kind of assay: two-hybrid.
In the case of B7, the binding entry is “no binding”.

Another assay concerns the target cytoplasmic domain of FERONIA fused to the GAL4 DNA-binding domain (BD-FER-CD) (Arabidopsis thaliana) (UniProt Q9SCZ4). Kind of assay: two-hybrid. This is another data set of the same source.
With B7, the binding entry is “binds”.

The next assay deals with cytoplasmic domain of BRI1 fused to the GAL4 DNA-binding domain (Arabidopsis thaliana) (UniProt O22476). Kind of assay: two-hybrid.
Turning to B7, the binding result is on record as “no binding”.
